Our source for the binding values is paper PMC6251927.

Chains of the proteins cited; added tags and fusions are not shown. Lines headed by an entry give the natural chain unless they say otherwise; changes in a name come on top.
UniProt Q9NFU0: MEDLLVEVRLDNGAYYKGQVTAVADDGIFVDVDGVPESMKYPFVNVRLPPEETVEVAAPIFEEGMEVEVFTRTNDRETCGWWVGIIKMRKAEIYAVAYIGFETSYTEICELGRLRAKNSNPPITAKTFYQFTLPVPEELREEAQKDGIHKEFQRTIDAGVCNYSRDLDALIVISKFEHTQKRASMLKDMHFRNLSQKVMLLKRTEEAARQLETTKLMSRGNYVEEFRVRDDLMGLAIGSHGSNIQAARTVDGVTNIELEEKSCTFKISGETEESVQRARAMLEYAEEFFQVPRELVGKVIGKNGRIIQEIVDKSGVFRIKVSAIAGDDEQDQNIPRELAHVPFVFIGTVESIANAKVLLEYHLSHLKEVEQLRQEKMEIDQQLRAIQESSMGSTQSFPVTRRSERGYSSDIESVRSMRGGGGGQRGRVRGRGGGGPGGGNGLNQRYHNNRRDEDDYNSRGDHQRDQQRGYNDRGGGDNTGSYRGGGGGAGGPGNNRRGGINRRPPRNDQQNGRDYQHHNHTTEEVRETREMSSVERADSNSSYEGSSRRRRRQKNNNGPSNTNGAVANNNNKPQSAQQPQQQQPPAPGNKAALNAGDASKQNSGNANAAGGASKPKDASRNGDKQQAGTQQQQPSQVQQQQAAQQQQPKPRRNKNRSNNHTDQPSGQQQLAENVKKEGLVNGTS
UniProt Q9VUH8: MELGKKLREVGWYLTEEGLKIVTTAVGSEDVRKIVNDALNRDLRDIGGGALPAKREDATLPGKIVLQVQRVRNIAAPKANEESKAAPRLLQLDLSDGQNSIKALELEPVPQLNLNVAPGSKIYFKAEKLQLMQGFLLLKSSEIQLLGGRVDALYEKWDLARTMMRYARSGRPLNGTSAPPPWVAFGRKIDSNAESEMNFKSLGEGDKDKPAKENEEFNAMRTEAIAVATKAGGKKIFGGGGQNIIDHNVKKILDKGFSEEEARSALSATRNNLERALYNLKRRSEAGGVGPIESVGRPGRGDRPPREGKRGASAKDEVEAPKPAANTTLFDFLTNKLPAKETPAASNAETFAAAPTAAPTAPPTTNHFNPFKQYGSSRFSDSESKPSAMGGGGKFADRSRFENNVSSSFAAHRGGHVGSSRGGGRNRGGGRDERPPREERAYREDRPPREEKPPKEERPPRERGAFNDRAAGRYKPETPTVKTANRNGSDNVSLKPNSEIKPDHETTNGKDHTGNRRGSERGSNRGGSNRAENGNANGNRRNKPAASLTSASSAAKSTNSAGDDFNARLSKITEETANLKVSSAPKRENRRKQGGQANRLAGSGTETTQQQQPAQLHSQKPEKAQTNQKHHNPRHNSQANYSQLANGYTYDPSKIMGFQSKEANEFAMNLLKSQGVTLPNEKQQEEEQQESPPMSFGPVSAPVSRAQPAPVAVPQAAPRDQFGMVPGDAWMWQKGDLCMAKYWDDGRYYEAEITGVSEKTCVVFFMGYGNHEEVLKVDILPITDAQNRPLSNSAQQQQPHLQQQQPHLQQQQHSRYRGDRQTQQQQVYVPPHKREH
UniProt P19109: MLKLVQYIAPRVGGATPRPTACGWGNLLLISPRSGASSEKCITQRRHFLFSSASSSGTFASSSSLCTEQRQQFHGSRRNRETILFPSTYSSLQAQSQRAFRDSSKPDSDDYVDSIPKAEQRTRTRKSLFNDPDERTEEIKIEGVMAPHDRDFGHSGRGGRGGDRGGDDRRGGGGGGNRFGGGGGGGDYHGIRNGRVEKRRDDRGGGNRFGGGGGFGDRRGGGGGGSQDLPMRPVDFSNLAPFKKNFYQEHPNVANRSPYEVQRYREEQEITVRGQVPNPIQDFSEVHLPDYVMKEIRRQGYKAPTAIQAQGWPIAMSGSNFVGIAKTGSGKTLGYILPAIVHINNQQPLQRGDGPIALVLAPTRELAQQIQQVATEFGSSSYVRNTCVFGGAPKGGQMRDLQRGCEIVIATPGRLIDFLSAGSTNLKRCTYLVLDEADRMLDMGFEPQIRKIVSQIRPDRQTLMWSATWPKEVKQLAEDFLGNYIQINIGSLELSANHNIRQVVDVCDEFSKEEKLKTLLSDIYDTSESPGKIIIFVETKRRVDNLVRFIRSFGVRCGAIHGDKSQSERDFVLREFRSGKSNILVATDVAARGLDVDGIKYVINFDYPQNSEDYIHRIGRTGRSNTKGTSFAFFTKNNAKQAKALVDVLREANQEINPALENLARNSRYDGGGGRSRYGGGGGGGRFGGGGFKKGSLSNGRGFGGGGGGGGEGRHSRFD

No constants are given. Whether binding was seen depends on the method and setting. In cells and extracts the contact can be indirect. These calls come from enrichment with a bait or labelling near it, and not all partners need be listed. For some assays here: Sequences can lack the tags named with a protein.

Test [1] has as its target Drosophila FMRP (Drosophila (endogenous in S2 cells)) (UniProt Q9NFU0). Nature of the test: affinity purification with mass spectrometry; IP with an FMRP antibody from S2 cells, silver-stained SDS-PAGE and MS of the entire immunoprecipitate.
Test [2] addresses Drosophila TDRD3 (Tudor domain-containing 3) (Drosophila (endogenous in S2 cells)) (UniProt Q9VUH8). The test can be described thus: affinity purification with mass spectrometry; IP with two antibodies against Drosophila TDRD3 (TDRD3-A and C) from S2 cell lysates, silver-stained SDS-PAGE and MS of the entire immunoprecipitate; also done with RNase A-treated extracts (fewer peptides of FMRP, p68 and AGO2).

Test [3] concerns the target Flag full-length TDRD3 (Drosophila). Nature of the test: affinity purification with mass spectrometry; Flag antibody IP from S2 cells transfected with Flag-Top3β, Flag-Top3β-ΔRGG or Flag-TDRD3, MS; mock-IP from S2 cells lacking the Flag proteins as control; extracts not treated with RNase.
The target in test [4] is T1, Flag-tagged Top3β (Drosophila) (UniProt O96651).
T1 sequence: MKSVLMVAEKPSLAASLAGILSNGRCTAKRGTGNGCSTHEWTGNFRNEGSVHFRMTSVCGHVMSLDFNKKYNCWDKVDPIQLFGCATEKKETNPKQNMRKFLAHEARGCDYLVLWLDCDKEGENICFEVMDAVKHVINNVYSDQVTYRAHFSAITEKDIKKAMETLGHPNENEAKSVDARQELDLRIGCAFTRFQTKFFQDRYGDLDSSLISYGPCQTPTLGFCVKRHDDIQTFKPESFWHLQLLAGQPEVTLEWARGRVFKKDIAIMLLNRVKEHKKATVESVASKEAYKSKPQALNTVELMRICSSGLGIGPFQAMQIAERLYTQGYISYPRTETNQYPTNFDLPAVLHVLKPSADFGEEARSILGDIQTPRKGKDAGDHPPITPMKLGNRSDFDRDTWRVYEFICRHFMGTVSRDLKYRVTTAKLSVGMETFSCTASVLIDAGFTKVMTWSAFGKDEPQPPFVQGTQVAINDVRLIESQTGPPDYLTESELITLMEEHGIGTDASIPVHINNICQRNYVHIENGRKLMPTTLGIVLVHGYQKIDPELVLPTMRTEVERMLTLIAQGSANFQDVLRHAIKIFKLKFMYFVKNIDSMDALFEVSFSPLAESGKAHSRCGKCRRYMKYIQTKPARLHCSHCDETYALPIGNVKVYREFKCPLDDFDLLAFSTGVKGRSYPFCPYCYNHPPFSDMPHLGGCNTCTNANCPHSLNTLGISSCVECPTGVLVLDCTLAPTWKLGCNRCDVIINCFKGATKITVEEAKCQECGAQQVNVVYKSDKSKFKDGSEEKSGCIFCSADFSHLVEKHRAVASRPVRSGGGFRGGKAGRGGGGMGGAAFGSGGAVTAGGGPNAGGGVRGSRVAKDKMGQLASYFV
Described as above.

Test [5] addresses Flag-Top3β mutant deleted of its RGG-box (Drosophila) (UniProt O96651). The description is as above.
Test [6] has as its target T1, Flag-tagged Top3β (Drosophila). Nature of the test: affinity purification with mass spectrometry; Flag antibody IP from transfected S2 cells, cell extracts treated with RNase A, MS.
Test [7] deals with Flag-Top3β mutant deleted of its RGG-box (Drosophila) (UniProt O96651). The description is as above.

With “p68 RNA helicase (encoded by Rm62) (from UniProt P19109 1-719) (enzyme)”, the binding entry in test [1] and in test [2] was “binds” throughout.

B1: Rin (protein, UniProt Q9VFT4 1-690)
chain: MVMDATQSQQPSPQSVGREFVRQYYTLLNKAPNHLHRFYNHNSSYIHGESKLVVGQREIHNRIQQLNFNDCHAKISQVDAQATLGNGVVVQVTGELSNDGQPMRRFTQTFVLAAQSPKKYYVHNDIFRYQDLYIEDEQDGESRSENDEEHDVQVVGGTVDQAVQVAGDVVAQQPQQQQAPPQPQAQVVVPQQVAPVAAGGAAPQQIFYPLPAGAAAGRPVAVLPPAPQAAAVPLPAQFTVPPPQPIQNGVVSHEELQQQQVLVPPSVSPLVQQQQPTGTPVLPIVPVPSAGFQQSPLVAPQLIQQQQQQQPAQLPPQQQQQQQPIQQQQPLQQQQQPLAEPEEVEVAPRQQKPPTPVEDFKTIHEQQQQEKYEAAKQQQNEPKTYANLFKSTSSSPSGFVNAALQQQQQLQQQQQQQQSISSNTYNSSSATSGGGNGSQVSYSTTASSYNNSNGNSRLDNGGPLPQRNNSIRNNKGDFEQRRSSNTQQFGDNQQLFLGNIPHHASEDDLREIFSRFGNVLELRILSKAGNKVPPGMRSPLNYGFITYDDPEAVQKCLANCPLYFPENSPDGQKLNVEEKKPRVRNDMVPRQQIGGNNLNNNMGRLGGNNGPQSRPMGNNNGSGGGMMRNNAGGNNLRQGGGGGNGAPRLGGGGGFGQRQDNRTGGGNNQSNGPLRGAGNGQSGGGNYGRR
Turning to B1, the binding entry in test [1] is on record as “binds”.

B2: Caprin (protein, UniProt Q9I7D3 1-961)
chain: MPSAANTATVTAAIATTVAASASNTNNNSVSKEKRSSIISLGGSVIPGTAVAAGAGVATTNGQSNSSAAATADGSQTDLASSNNNGNAAKSKANAVSAAAVVPEPYNPLKQLLVTIEHKIRNLEKRKTKLESYRAIQSSGKELSGDQASAVAKYDAVLANLEFARELAKHIQQQSKEAEKEQKKQARKDNLAKTIAETAKIREVLIIQNVLNCFNDDQVRSDFLNGENGAKKLENTELELLEKFFIETQTRRPETADDVSFIATAQKSAELFYSTINARPKSFGEVSFEKLRSLFQQIQDSGYLDKYYLVPLAENAVANSTDSGTGSGDGESGDLLNDGSGELDAELPSEPSARNSLEEGLDKLHLGVQAELDQHQSYQQQQERPSHLLEPQHQRAPSLEHQQNSMVQQVSTQVYQAAPQAGGTTTPVHVLYAPAPPAQQQPQQPPPHPHQLLSSPVNLQALQTGTAAPPAQQQQPHPTHFAPNVRAVEQNYFKQPPQHPQGPGIQAPQTPQQQQFMQHSRPLAEVLGTGRFHFLQDSELDNPEALAPPPPTNQGLVFEQQPQQPNHVEEPTQAILTLTFTNQSFPSQQPQPQQQGPQQQQQLFSPVLIHEQRQQPPQQQPQPMLIMPRLPTQQPQQPAPQGIGMQAGDVTSGFSYENAVVSYEQQIQQQLKQQQQQQQQQQQNLQQLDEPSSVNSSSSVGAGGDVENNEWHARNNDTNAAATAALTNVLKGETTQATPPAPPTKWSSEMNAMSSAASNGSSNTSHKQEWATPRDHSTGGGNSGYADNNESNNHWNNSQGDGRRNSGNYQRRGGDRDNRDRDQGGRGDERRNGGDRGNYRSRQYGNSSNTNGRNSGNSSGVYFRNNESGNGGGNNYYQNGGGGGGTYNKESRYESSGGGGGSYRGQRGGNQQRNVNGSYGGGRPMGDRGRGGAGNQGGGGGGYINRQNQSQRMPLGLENKN
Turning to B2, the binding result in test [1] is reported as “binds”.

B3: Argonaute 2 (AGO2) (protein, UniProt Q9VUQ5 1-1214)
chain: MGKKDKNKKGGQDSAAAPQPQQQQKQQQQRQQQPQQLQQPQQLQQPQQLQQPQQQQQQQPHQQQQQSSRQQPSTSSGGSRASGFQQGGQQQKSQDAEGWTAQKKQGKQQVQGWTKQGQQGGHQQGRQGQDGGYQQRPPGQQQGGHQQGRQGQEGGYQQRPPGQQQGGHQQGRQGQEGGYQQRPSGQQQGGHQQGRQGQEGGYQQRPPGQQQGGHQQGRQGQEGGYQQRPSGQQQGGHQQGRQGQEGGYQQRPPGQQQGGHQQGRQGQEGGYQQRPPGQQQGGHEQGRQGQEGGYQQRPSGQQQGGHQQGRQGQEGGYQQRPSGQQQGGHQQGRQGQEGGYQQRPSGQQQGGHQQGRQGQEGGYQQRPPGQQPNQTQSQGQYQSRGPPQQQQAAPLPLPPQPAGSIKRGTIGKPGQVGINYLDLDLSKMPSVAYHYDVKIMPERPKKFYRQAFEQFRVDQLGGAVLAYDGKASCYSVDKLPLNSQNPEVTVTDRNGRTLRYTIEIKETGDSTIDLKSLTTYMNDRIFDKPMRAMQCVEVVLASPCHNKAIRVGRSFFKMSDPNNRHELDDGYEALVGLYQAFMLGDRPFLNVDISHKSFPISMPMIEYLERFSLKAKINNTTNLDYSRRFLEPFLRGINVVYTPPQSFQSAPRVYRVNGLSRAPASSETFEHDGKKVTIASYFHSRNYPLKFPQLHCLNVGSSIKSILLPIELCSIEEGQALNRKDGATQVANMIKYAATSTNVRKRKIMNLLQYFQHNLDPTISRFGIRIANDFIVVSTRVLSPPQVEYHSKRFTMVKNGSWRMDGMKFLEPKPKAHKCAVLYCDPRSGRKMNYTQLNDFGNLIISQGKAVNISLDSDVTYRPFTDDERSLDTIFADLKRSQHDLAIVIIPQFRISYDTIKQKAELQHGILTQCIKQFTVERKCNNQTIGNILLKINSKLNGINHKIKDDPRLPMMKNTMYIGADVTHPSPDQREIPSVVGVAASHDPYGASYNMQYRLQRGALEEIEDMFSITLEHLRVYKEYRNAYPDHIIYYRDGVSDGQFPKIKNEELRCIKQACDKVGCKPKICCVIVVKRHHTRFFPSGDVTTSNKFNNVDPGTVVDRTIVHPNEMQFFMVSHQAIQGTAKPTRYNVIENTGNLDIDLLQQLTYNLCHMFPRCNRSVSYPAPAYLAHLVAARGRVYLTGTNRFLDLKKEYAKRTIVPEFMKKNPMYFV
Consider B3, for which the binding entry in test [3], in test [4], in test [5], in test [2], in test [6] and in test [7] was “binds” throughout.

B4: Vig (an RBP) (protein, UniProt Q9V426 1-490)
chain: MDSAGKNRYELLFMDDDVSDPLDNLVAPTAAAAAAAAGKKKQPSAAAAAATKTTANKVANSNNKANAGSNIGGPNAKKPNQAEKENKPNNALNKTDGKKFTPSADNKQQQFNNNASSNYKQQGAPRQGGGANRTREFGSGQGQGQGQGGQQQRSVNFRQQNGNAETREQRNNRRNVRENVGAPDGQQSRPYRGPGGGPGAGGDRPQRQNRNYDGQNRKREFDRQSGSDRTGVKSIDKRDGAGSHNWGSVKEAIDDVNKNESETNVTNAEGGAKADESGTEPQNEQATAEEEAKELTLDEWKAQQGQRIKPTFNIRKAGEGEDTTQWKKMVVLTSNKKKENDSEEELEYDPALYPQRVGRQQRVLDIQFNFNDGRRGGPGGFGGRGGRGGPRPGGFGGGPRSEGGNRDGGNREGGRDNREGGNRGPRDGQQHNNEGGGSSAQNQRPPIDRRGPGNNQNNNQNSGPGPNKRFERQQNTAPKVNDERQFPTLA
For B4, in test [2], the binding entry is reported as “binds”.
